In patent US20100260707A1:
Results are given in words; binding and its absence hold for the method and conditions named. Some results given as binding are weak or reduced against the parent protein; the word gives no strength.

Chains of the proteins cited; added tags and fusions are not shown. Lines headed by an entry give the natural chain unless they say otherwise; changes in a name come on top. A line that says so, or that is headed by a name, gives the form on record, which may keep a tag or linker.
ED-A isoform of human fibronectin (A-FN) in human arthritic specimens (P02751, form named): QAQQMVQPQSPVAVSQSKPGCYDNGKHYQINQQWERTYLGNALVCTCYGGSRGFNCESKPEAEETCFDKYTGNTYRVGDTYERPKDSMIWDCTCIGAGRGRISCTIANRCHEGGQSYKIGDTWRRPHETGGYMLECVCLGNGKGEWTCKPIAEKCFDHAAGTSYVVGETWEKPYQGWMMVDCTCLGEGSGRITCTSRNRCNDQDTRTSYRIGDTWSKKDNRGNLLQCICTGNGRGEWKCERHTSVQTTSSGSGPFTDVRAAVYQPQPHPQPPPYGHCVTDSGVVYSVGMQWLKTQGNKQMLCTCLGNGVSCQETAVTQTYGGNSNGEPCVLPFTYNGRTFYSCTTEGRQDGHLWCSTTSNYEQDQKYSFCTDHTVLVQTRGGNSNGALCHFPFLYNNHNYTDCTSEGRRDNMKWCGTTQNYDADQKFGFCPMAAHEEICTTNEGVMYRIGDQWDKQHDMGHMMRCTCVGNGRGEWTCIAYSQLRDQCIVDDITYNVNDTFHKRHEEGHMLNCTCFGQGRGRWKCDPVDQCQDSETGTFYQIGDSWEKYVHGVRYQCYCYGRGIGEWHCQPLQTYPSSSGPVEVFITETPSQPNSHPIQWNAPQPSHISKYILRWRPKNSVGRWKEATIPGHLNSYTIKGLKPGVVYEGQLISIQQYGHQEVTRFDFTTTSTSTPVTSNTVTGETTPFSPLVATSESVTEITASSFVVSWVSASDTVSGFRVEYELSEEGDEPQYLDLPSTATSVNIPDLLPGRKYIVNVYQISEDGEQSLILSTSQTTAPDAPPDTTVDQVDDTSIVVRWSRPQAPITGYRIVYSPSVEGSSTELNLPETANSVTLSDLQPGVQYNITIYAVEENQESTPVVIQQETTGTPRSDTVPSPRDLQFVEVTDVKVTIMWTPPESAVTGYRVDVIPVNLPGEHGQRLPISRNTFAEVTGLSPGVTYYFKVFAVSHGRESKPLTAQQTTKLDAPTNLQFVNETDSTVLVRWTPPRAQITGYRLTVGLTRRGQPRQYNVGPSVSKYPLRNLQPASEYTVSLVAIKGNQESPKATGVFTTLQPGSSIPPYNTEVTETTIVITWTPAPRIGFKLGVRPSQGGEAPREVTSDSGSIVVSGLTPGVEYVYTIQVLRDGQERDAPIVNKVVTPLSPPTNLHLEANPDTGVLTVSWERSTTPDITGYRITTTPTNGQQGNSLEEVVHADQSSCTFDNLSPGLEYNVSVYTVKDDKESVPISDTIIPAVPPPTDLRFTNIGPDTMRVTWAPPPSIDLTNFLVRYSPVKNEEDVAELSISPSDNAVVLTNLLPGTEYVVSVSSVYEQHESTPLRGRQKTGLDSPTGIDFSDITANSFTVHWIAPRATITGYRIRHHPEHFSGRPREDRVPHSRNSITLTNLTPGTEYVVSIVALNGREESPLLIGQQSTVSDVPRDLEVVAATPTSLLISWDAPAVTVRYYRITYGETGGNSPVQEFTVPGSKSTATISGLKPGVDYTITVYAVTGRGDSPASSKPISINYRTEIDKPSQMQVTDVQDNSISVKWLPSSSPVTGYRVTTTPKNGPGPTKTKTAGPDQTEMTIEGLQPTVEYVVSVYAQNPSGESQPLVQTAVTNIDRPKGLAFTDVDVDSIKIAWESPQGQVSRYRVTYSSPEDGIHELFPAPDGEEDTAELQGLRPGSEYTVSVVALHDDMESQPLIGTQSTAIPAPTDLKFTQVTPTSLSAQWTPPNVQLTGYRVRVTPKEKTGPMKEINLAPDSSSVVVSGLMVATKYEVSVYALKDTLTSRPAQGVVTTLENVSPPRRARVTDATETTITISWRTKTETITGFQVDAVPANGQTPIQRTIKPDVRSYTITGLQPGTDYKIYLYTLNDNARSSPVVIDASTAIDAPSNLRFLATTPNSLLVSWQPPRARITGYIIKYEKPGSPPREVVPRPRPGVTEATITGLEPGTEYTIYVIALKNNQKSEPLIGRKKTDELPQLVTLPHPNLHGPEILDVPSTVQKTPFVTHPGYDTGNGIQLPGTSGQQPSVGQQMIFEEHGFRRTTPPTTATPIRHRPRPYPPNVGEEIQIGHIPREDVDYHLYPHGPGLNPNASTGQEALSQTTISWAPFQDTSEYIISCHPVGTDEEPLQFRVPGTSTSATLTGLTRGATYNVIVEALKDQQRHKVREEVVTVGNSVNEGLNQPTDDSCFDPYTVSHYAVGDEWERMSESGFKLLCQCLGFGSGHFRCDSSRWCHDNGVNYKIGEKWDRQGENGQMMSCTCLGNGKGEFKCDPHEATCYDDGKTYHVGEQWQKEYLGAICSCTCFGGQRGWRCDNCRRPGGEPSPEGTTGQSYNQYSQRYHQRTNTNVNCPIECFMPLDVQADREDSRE

Legend:
[1] = target: ED-A isoform of human fibronectin (A-FN) in human arthritic specimens (human) (UniProt P02751); assay: immunohistochemistry on frozen sections of human arthritic specimens, myc-tagged scFv at 10 ug/ml
[2] = target: ED-A isoform of human fibronectin (A-FN) in human arthritic specimens (human) (UniProt P02751); assay: immunofluorescence on frozen sections of human arthritic specimens, myc-tagged scFv at 10 ug/ml

binding [1]: binds | binding [2]: binds
B1: anti-ED-A antibody F8 (scFv)
scFv: EVQLVESGGGLVQPGGSLRLSCAASGFTFSLFTMSWVRQAPGKGLEWVSAISGSGGSTYYADSVKGRFTISRDNSKNTLYLQMNSLRAEDTAVYYCAKSTHLYLFDYWGQGTLVTVSSGGGGSGGGGSGGGGSGGGGSEIVLTQSPGTLSLSPGEKATLSCRASQSVSMPFLAWYQQKPGQAPRLLIYGASSRATGIPDRFSGSGSGTDFTLTISRLEPEDFAVYYCQQMRGRPPTFGQGTKVEIKAAAEQKLISEEDLNGAA
